# Laboratory results as given in PubChem BioAssay AID270 (DTP/NCI, 2004).
# The list shows only some results of the screen, not a fair sample: it gathers tests that were run many times, whatever their T/C, doses with no T/C, and many T/C values between a quarter and a half above the control. Further doses and runs are listed elsewhere. T/C is the treated group as % of the vehicle group. Schedules are NCI's codes, taken here to give the interval after Q, in days (D) or hours (H), and the number of doses after X. Some entries give survivors of the animals treated and no T/C: the source files T/C as zero there, which appears to mark a toxic dose or a test without result, not a measured value. Some survivor counts are full or nearly so, which does not show that the dose was tolerated: the source hardly ever lists a survival T/C far under the control, and the zero likely stands for such cases as well. Counts of survivors are from the toxicity check (mostly the fifth day) where no day follows; animals may have died later. Some entries were tested several times; the results are listed from low to high. For survival time, the PubChem record calls one and a half times the control and up active, and a quarter to a half above the control has no call in these data; cut-offs in other NCI protocols can differ. Some T/C values are followed by the survivors on the day toxicity was checked, most often the fifth; where none is given, no animal had died by that day.
# System: BDF1 mice, s.c. Lewis lung carcinoma, T/C %
# Test: NCI In Vivo Anticancer Drug Screen. Data for tumor model Lewis Lung Carcinoma (subcutaneous) in B6D2F1 (BDF1) mice
# Summary of the method: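 Tumor-bearing mice were treated with test compound, and either survival or tumor size was recorded. Values are the treated-group measurement divided by that of the vehicle-treated control group.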
# [1] = T/C endpoint: median survival time, dose: 4.0 mg/kg/injection, schedule: Q04DX003 (ip), vehicle: saline with Tween-80, higher T/C = longer survival
# [2] = T/C endpoint: median survival time, dose: 12.5 mg/kg/injection, schedule: Q01DX009 (ip), vehicle: saline, higher T/C = longer survival
# [3] = T/C endpoint: median survival time, dose: 25.0 mg/kg/injection, schedule: Q01DX009 (ip), vehicle: saline, higher T/C = longer survival
# [4] = T/C endpoint: median survival time, dose: 50.0 mg/kg/injection, schedule: Q01DX009 (ip), vehicle: saline, higher T/C = longer survival
# [5] = T/C endpoint: median survival time, dose: 100.0 mg/kg/injection, schedule: Q01DX009 (ip), vehicle: saline, higher T/C = longer survival
compound,measurement,setting,value
Cc1cc(N(CCCl)CCCl)ccc1N=Nc1ccccc1C(=O)O,T/C,[1],129 % of control
same,T/C,"T/C endpoint: median survival time, dose: 8.0 mg/kg/injection, schedule: Q04DX003 (ip), vehicle: saline with Tween-80, higher T/C = longer survival",137 % of control
same,survivor count,"T/C endpoint: median survival time, dose: 16.0 mg/kg/injection, schedule: Q01DX009 (ip), vehicle: saline with Tween-80, higher T/C = longer survival",10 of 10
same,survivor count,"T/C endpoint: median survival time, dose: 16.0 mg/kg/injection, schedule: Q04DX003 (ip), vehicle: saline with Tween-80, higher T/C = longer survival",10 of 10
same,survivor count,"T/C endpoint: median survival time, dose: 32.0 mg/kg/injection, schedule: Q01DX009 (ip), vehicle: saline with Tween-80, higher T/C = longer survival",9 of 10
same,survivor count,"T/C endpoint: median survival time, dose: 40.0 mg/kg/injection, schedule: Q01DX001 (ip), vehicle: saline with Tween-80, higher T/C = longer survival",8 of 10
same,survivor count,"T/C endpoint: median survival time, dose: 64.0 mg/kg/injection, schedule: Q04DX003 (ip), vehicle: saline with Tween-80, higher T/C = longer survival",10 of 10
same,survivor count,"T/C endpoint: median survival time, dose: 80.0 mg/kg/injection, schedule: Q01DX001 (ip), vehicle: saline with Tween-80, higher T/C = longer survival",10 of 10
same,survivor count,"T/C endpoint: median survival time, dose: 160.0 mg/kg/injection, schedule: Q01DX001 (ip), vehicle: saline with Tween-80, higher T/C = longer survival",6 of 10
O=[N+]([O-])c1ccc(/C=N/c2ncc(Br)s2)o1,survivor count,"T/C endpoint: median survival time, dose: 25.0 mg/kg/injection, schedule: Q01DX009 (ip), vehicle: Klucel (hydroxypropylcellulose) (HPC), higher T/C = longer survival",9 of 10
same,survivor count,"T/C endpoint: median survival time, dose: 50.0 mg/kg/injection, schedule: Q01DX009 (ip), vehicle: Klucel (hydroxypropylcellulose) (HPC), higher T/C = longer survival",10 of 10
same,survivor count,"T/C endpoint: median survival time, dose: 100.0 mg/kg/injection, schedule: Q01DX009 (ip), vehicle: Klucel (hydroxypropylcellulose) (HPC), higher T/C = longer survival",6 of 10
O=NN(CCCl)C(=O)NC1CCC(=O)NC1=O (stereo unspecified),survivor count,"T/C endpoint: median survival time, dose: 1.3 mg/kg/injection, schedule: Q02DX009 (ip), vehicle: saline with Tween-80, higher T/C = longer survival",10 of 10
same,T/C,"T/C endpoint: median survival time, dose: 2.5 mg/kg/injection, schedule: Q01DX009 (ip), vehicle: other, higher T/C = longer survival",141 % of control
same,T/C,"T/C endpoint: median survival time, dose: 4.0 mg/kg/injection, schedule: Q01DX009 (ip), vehicle: Klucel (hydroxypropylcellulose) (HPC), higher T/C = longer survival",131 % of control
same,survivor count,[1],10 of 10
same,survivor count,"T/C endpoint: median survival time, dose: 5.0 mg/kg/injection, schedule: Q01DX001 (ip), vehicle: other, higher T/C = longer survival",10 of 10
same,T/C,"T/C endpoint: median survival time, dose: 5.0 mg/kg/injection, schedule: Q01DX009 (ip), vehicle: other, higher T/C = longer survival",127 % of control
same,T/C,"T/C endpoint: median survival time, dose: 7.0 mg/kg/injection, schedule: Q01DX001 (ip), vehicle: gum acacia, higher T/C = longer survival",132 % of control
same,survivor count,"T/C endpoint: median survival time, dose: 10.0 mg/kg/injection, schedule: Q01DX009 (ip), vehicle: other, higher T/C = longer survival",10 of 10
same,T/C,"T/C endpoint: median survival time, dose: 11.0 mg/kg/injection, schedule: Q01DX001 (ip), vehicle: gum acacia, higher T/C = longer survival",136 % of control
same,T/C,"T/C endpoint: median survival time, dose: 17.0 mg/kg/injection, schedule: Q01DX001 (ip), vehicle: gum acacia, higher T/C = longer survival",126 % of control
same,T/C,"T/C endpoint: median survival time, dose: 20.0 mg/kg/injection, schedule: Q01DX001 (ip), vehicle: other, higher T/C = longer survival",137 [9 of 10 alive] and 141 % of control
same,survivor count,"T/C endpoint: median survival time, dose: 20.0 mg/kg/injection, schedule: Q01DX001 (ip), vehicle: saline, higher T/C = longer survival",10 of 10
same,survivor count,"T/C endpoint: median survival time, dose: 40.0 mg/kg/injection, schedule: Q01DX001 (ip), vehicle: other, higher T/C = longer survival",9 of 10 and 10 of 10
same,survivor count,"T/C endpoint: median survival time, dose: 80.0 mg/kg/injection, schedule: Q01DX001 (ip), vehicle: other, higher T/C = longer survival",6 of 10 and 10 of 10
same,survivor count,"T/C endpoint: median survival time, dose: 80.0 mg/kg/injection, schedule: Q01DX001 (ip), vehicle: saline, higher T/C = longer survival",10 of 10
same,survivor count,"T/C endpoint: median tumor weight (est.), dose: 23.0 mg/kg/injection, schedule: Q01DX001 (ip), vehicle: gum acacia, higher T/C = larger tumour",5 of 10 on day 16
Oc1c(CNCCCN2CCCC2)cc(Cl)c2cccnc12,T/C,[2],"88, 102, 109 % of control"
same,survivor count,[2],10 of 10
same,T/C,[3],"95 [7 of 10 alive], 96, 142 % of control"
same,survivor count,[3],10 of 10
same,T/C,[4],"95, 97, 100 % of control"
same,survivor count,[4],10 of 10
same,T/C,[5],103 and 147 % of control
same,survivor count,[5],10 of 10
same,survivor count,"T/C endpoint: median survival time, dose: 200.0 mg/kg/injection, schedule: Q01DX009 (ip), vehicle: saline, higher T/C = longer survival","0 of 10, 8 of 10, 10 of 10"
O=C(NO)c1ccccc1O,survivor count,"T/C endpoint: median survival time, dose: 50.0 mg/kg/injection, schedule: Q01DX009 (ip), vehicle: saline with Tween-80, higher T/C = longer survival",10 of 10
same,survivor count,"T/C endpoint: median survival time, dose: 100.0 mg/kg/injection, schedule: Q01DX009 (ip), vehicle: saline with Tween-80, higher T/C = longer survival",10 of 10
same,survivor count,"T/C endpoint: median survival time, dose: 200.0 mg/kg/injection, schedule: Q01DX009 (ip), vehicle: saline with Tween-80, higher T/C = longer survival",8 of 10
CC[n+]1ccc(Nc2ccc(/C=C/c3ccc4cc(Nc5cc[n+](CC)cc5)ccc4[n+]3CC)cc2)cc1,survivor count,"T/C endpoint: median survival time, dose: 20.0 mg/kg/injection, schedule: Q01DX009 (ip), vehicle: saline, higher T/C = longer survival",1 of 10
c1ccc(C2=C(c3ccccc3)C(c3ccccc3)=C(c3ccccc3)C2)cc1,T/C,"T/C endpoint: mean tumor weight, dose: 500.0 mg/kg/injection, schedule: Q01DX011 (ip), vehicle: other, evaluated on day 12, higher T/C = larger tumour",146 % of control
CCCNc1ncnc2c1cnn2C,survivor count,"T/C endpoint: mean tumor weight, dose: 35.0 mg/kg/injection, schedule: Q01DX011 (ip), vehicle: saline, higher T/C = larger tumour",1 of 6
same,survivor count,"T/C endpoint: mean tumor weight, dose: 55.0 mg/kg/injection, schedule: Q01DX011 (ip), vehicle: saline, higher T/C = larger tumour",0 of 6
same,survivor count,"T/C endpoint: mean tumor weight, dose: 85.0 mg/kg/injection, schedule: Q01DX011 (ip), vehicle: saline, higher T/C = larger tumour",0 of 6
[I][Hg][CH2]C1OCCOC1[CH2][Hg][I] (stereo unspecified),survivor count,"T/C endpoint: mean tumor weight, dose: 150.0 mg/kg/injection, schedule: Q01DX011 (ip), vehicle: saline, higher T/C = larger tumour",3 of 6
O=c1[nH]c(=O)c2[nH]cnc2[nH]1,T/C,"T/C endpoint: mean tumor weight, dose: 400.0 mg/kg/injection, schedule: Q01DX011 (ip), vehicle: saline, evaluated on day 12, higher T/C = larger tumour",135 % of control
CCOP(=O)(CC(=O)NC(CC(=O)OC)C(=O)OC)OCC (stereo unspecified),T/C,"T/C endpoint: median survival time, dose: 400.0 mg/kg/injection, schedule: Q01DX004 (ip), vehicle: saline, higher T/C = longer survival",135 % of control
CC(=O)OC(C)C1C2=C(C(=O)CC1(C)O)C(=O)c1c(ccc(-c3ccc4c(c3O)C(=O)C3=C(C4=O)C(C(C)OC(C)=O)C(C)(O)CC3=O)c1O)C2=O (stereo unspecified),T/C,"T/C endpoint: median survival time, dose: 0.19 mg/kg/injection, schedule: Q01DX009 (ip), vehicle: saline + alcohol, higher T/C = longer survival",125 % of control
same,survivor count,"T/C endpoint: median survival time, dose: 3.13 mg/kg/injection, schedule: Q01DX009 (ip), vehicle: saline with Tween-80, higher T/C = longer survival",10 of 10
same,survivor count,"T/C endpoint: median survival time, dose: 6.25 mg/kg/injection, schedule: Q01DX009 (ip), vehicle: saline with Tween-80, higher T/C = longer survival",10 of 10
same,survivor count,"T/C endpoint: median survival time, dose: 12.5 mg/kg/injection, schedule: Q01DX009 (ip), vehicle: saline with Tween-80, higher T/C = longer survival",9 of 10
same,survivor count,"T/C endpoint: median survival time, dose: 25.0 mg/kg/injection, schedule: Q01DX009 (ip), vehicle: saline with Tween-80, higher T/C = longer survival",9 of 10
COC1CCC(NC(=O)N(CCCl)N=O)CC1 (stereo unspecified),T/C,"T/C endpoint: median survival time, dose: 25.0 mg/kg/injection, schedule: Q01DX001 (ip), vehicle: saline with Tween-80, higher T/C = longer survival",129 % of control
same,T/C,"T/C endpoint: median survival time, dose: 37.0 mg/kg/injection, schedule: Q01DX001 (ip), vehicle: saline with Tween-80, higher T/C = longer survival",128 % of control
same,T/C,"T/C endpoint: median survival time, dose: 56.0 mg/kg/injection, schedule: Q01DX001 (ip), vehicle: saline with Tween-80, higher T/C = longer survival",140 % of control
O=C(NP(=O)(N1CC1)N1CC1)c1cc(I)ccc1I,survivor count,"T/C endpoint: median survival time, dose: 128.0 mg/kg/injection, schedule: Q02DX009 (ip), vehicle: saline with Tween-80, higher T/C = longer survival",9 of 10
same,survivor count,"T/C endpoint: median survival time, dose: 256.0 mg/kg/injection, schedule: Q02DX009 (ip), vehicle: saline with Tween-80, higher T/C = longer survival",10 of 10
same,survivor count,"T/C endpoint: median survival time, dose: 512.0 mg/kg/injection, schedule: Q02DX009 (ip), vehicle: saline with Tween-80, higher T/C = longer survival",10 of 10
OC(C1CO1)C(O)C1CO1 (stereo unspecified),survivor count,"T/C endpoint: mean tumor weight (est.), dose: 4.0 mg/kg/injection, schedule: Q01DX009 (ip), vehicle: saline, higher T/C = larger tumour",1 of 6
same,survivor count,"T/C endpoint: mean tumor weight (est.), dose: 8.0 mg/kg/injection, schedule: Q04DX003 (ip), vehicle: saline, higher T/C = larger tumour",3 of 6
same,survivor count,"T/C endpoint: median survival time, dose: 4.0 mg/kg/injection, schedule: Q01DX009 (ip), vehicle: saline, higher T/C = longer survival",1 of 6
same,survivor count,"T/C endpoint: median survival time, dose: 8.0 mg/kg/injection, schedule: Q01DX009 (ip), vehicle: saline, higher T/C = longer survival",0 of 6
same,survivor count,"T/C endpoint: median survival time, dose: 8.0 mg/kg/injection, schedule: Q04DX003 (ip), vehicle: saline, higher T/C = longer survival",3 of 6
same,survivor count,"T/C endpoint: median survival time, dose: 16.0 mg/kg/injection, schedule: Q04DX003 (ip), vehicle: saline, higher T/C = longer survival",0 of 6
CNC(=O)N(C)c1cc(N(C)C)nc(OC)n1,T/C,"T/C endpoint: median survival time, dose: 20.0 mg/kg/injection, schedule: Q01DX009 (ip), vehicle: Klucel (hydroxypropylcellulose) (HPC), higher T/C = longer survival",146 % of control
